Assay results reported in US5656449A, “Neutral unsymmetrical cyanine dyes” (Molecular Probes, Inc., priority 1995, dated 1997).
Where a name gives a salt, the structure may show the parent alone.

Test system: doublestranded cal thymus DNA
Test: Spectral characteristics of dyes bound to double-stranded DNA (Table 1)
Design: species or system calf
Settings: for Quantum Yield (DNA): bound to doublestranded calf thymus DNA; for Emission (DNA complex): fluorescence emission maximum on doublestranded DNA; for Excitation (DNA complex): fluorescence excitation maximum on doublestranded DNA

Structure (SMILES)	Quantum Yield (DNA)	Emission (DNA complex) [nm]	Excitation (DNA complex) [nm]
CCN1C(=Cc2cc(Sc3ccccc3)nc3ccccc23)Sc2ccccc21 [Dye 509]	0.05	530	508
CCN(CC)c1cc(C=C2Sc3ccccc3N2CC)c2ccccc2n1 [Dye 510]	0.71	500	461
Cc1cc(C=C2Sc3ccccc3N2C)nc2ccccc12 [Dye 523-1]	0.25	521	462
Cc1cc(C=C2Sc3ccccc3N2C)c2ccccc2n1 [Dye 523-2]	0.19	517	493
CN1C(=Cc2ccnc3ccccc23)Sc2ccccc21 [Dye 798, 4-(2,3-dihydro-3-methyl-(benzo-1,3-thiazol-2-yl)-methylidine)-quinolinium tosylate]	0.09	521	491
CN1C(=Cc2ccnc3ccccc23)Oc2ccccc21 [Dye 799]	0.27	493	465
CCN1C(=Cc2ccnc3ccccc23)Sc2ccccc21 [Dye 1266]	0.07	524	490
COc1ccc2nc(C=C3Sc4ccccc4N3C)ccc2c1 [Dye 1267]	0.07	543	475
CCCCc1cc(C=C2Sc3ccccc3N2CC)c2ccccc2n1 [Dye 1268]	0.25	517	492
CCN1C(=Cc2cc(-c3ccccc3)nc3ccccc23)Sc2ccccc21 [Dye 4100]	0.08	553	512
CN1C(=Cc2ccc3ccccc3n2)Sc2ccccc21 [Dye 7100]	0.11	533	470
CN1C(=Cc2ccncc2)Sc2ccccc21 [Dye 7101]	0.12	475	444
CN1C(=Cc2cc[n+](C)c3ccccc23)Oc2ccccc21 [Oxazole Yellow, reference compound]	0.31	504	483
CN1C(=Cc2cc[n+](C)c3ccccc23)Sc2ccccc21 [Thiazole Orange, reference compound]	0.18	530	510
